These are yes or no findings as the source states them, for the method shown. Binding seen in cells or lysates may run through a third protein. Some results given as binding are weak or reduced against the parent protein; the word gives no strength.
How the values were obtained:
[1] = target: GABAaR subunit α-1 (rat (endogenous in primary hippocampal neurons and hippocampus)) (UniProt P62813); experiment: co-IP; native total protein of cultured rat primary hippocampal neurons; anti-GABA A receptor alpha 1 antibody (Abcam ab252430) 4 °C overnight, Protein A/G Plus-Agarose; blot for NPTN; groups: control, Mg2+-free extracellular fluid 3 h, LV-NC (Mg2+-free), LV-OE-NPTN (Mg2+-free)
[2] = target: GABAaR subunit α-1 (rat (endogenous in primary hippocampal neurons and hippocampus)) (UniProt P62813); experiment: co-IP; native total protein of rat hippocampus; anti-GABA A receptor alpha 1 antibody (Abcam ab252430) 4 °C overnight, Protein A/G Plus-Agarose; blot for NPTN; groups: control, PTZ-induced SE, AAV-NC (SE), AAV-OE-NPTN (SE)

By UniProt entry, the sequences of proteins in these tests, tags left out. Residues count along the entry.
UniProt P62813, residues 28-455: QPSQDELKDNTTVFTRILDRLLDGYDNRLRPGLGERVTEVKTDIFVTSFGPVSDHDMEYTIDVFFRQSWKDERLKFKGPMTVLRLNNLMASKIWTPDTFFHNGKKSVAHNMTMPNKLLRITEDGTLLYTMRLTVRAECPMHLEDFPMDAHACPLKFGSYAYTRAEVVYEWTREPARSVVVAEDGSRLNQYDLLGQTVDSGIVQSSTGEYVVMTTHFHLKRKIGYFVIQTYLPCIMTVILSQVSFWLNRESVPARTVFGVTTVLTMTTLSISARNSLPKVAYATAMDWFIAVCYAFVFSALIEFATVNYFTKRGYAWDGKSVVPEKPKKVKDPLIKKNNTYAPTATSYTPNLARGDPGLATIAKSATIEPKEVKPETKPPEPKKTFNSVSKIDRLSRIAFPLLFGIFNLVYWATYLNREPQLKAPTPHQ
UniProt P97546, residues 29-393: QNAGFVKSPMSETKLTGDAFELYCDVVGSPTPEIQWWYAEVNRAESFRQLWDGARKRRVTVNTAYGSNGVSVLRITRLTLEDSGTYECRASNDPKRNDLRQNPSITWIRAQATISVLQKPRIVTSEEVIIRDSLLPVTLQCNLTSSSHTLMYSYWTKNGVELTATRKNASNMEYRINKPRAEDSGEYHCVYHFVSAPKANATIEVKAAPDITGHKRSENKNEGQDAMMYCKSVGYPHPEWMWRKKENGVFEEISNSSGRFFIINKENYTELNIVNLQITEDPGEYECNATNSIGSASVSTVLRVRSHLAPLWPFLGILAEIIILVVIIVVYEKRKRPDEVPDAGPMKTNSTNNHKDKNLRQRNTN

Substance	binding [1]	binding [2]
Neuroplastin isoform 2 precursor (NP_062253), overexpressed by lentivirus (LV-OE-NPTN) (from UniProt P97546-2 29-393)	binds	–
Neuroplastin isoform 2 precursor (NP_062253), overexpressed by adeno-associated virus (AAV-OE-NPTN) (from UniProt P97546-2 29-393)	–	binds

From PMC10563248
